Source: publication PMC11816668

Chains of the proteins cited; added tags and fusions are not shown. Lines headed by an entry give the natural chain unless they say otherwise; changes in a name come on top.
UniProt Q9NX00: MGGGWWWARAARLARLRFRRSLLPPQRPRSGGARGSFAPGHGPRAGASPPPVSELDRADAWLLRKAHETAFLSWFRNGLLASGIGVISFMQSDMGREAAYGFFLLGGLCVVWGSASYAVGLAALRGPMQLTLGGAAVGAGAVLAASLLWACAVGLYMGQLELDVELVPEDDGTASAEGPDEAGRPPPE

B1: nucleoporin NUP50 (protein, UniProt Q9UKX7 1-468)
chain: MAKRNAEKELTDRNWDQEDEAEEVGTFSMASEEVLKNRAIKKAKRRNVGFESDTGGAFKGFKGLVVPSGGGRFSGFGSGAGGKPLEGLSNGNNITSAPPFASAKAAADPKVAFGSLAANGPTTLVDKVSNPKTNGDSQQPSSSGLASSKACVGNAYHKQLAALNCSVRDWIVKHVNTNPLCDLTPIFKDYEKYLANIEQQHGNSGRNSESESNKVAAETQSPSLFGSTKLQQESTFLFHGNKTEDTPDKKMEVASEKKTDPSSLGATSASFNFGKKVDSSVLGSLSSVPLTGFSFSPGNSSLFGKDTTQSKPVSSPFPTKPLEGQAEGDSGECKGGDEEENDEPPKVVVTEVKEEDAFYSKKCKLFYKKDNEFKEKGIGTLHLKPTANQKTQLLVRADTNLGNILLNVLIPPNMPCTRTGKNNVLIVCVPNPPIDEKNATMPVTMLIRVKTSEDADELHKILLEKKDA
B2: SRRM1 (protein, UniProt Q8IYB3 1-904)
chain: MDAGFFRGTSAEQDNRFSNKQKKLLKQLKFAECLEKKVDMSKVNLEVIKPWITKRVTEILGFEDDVVIEFIFNQLEVKNPDSKMMQINLTGFLNGKNAREFMGELWPLLLSAQENIAGIPSAFLELKKEEIKQRQIEQEKLASMKKQDEDKDKRDKEEKESSREKRERSRSPRRRKSRSPSPRRRSSPVRRERKRSHSRSPRHRTKSRSPSPAPEKKEKTPELPEPSVKVKEPSVQEATSTSDILKVPKPEPIPEPKEPSPEKNSKKEKEKEKTRPRSRSRSKSRSRTRSRSPSHTRPRRRHRSRSRSYSPRRRPSPRRRPSPRRRTPPRRMPPPPRHRRSRSPVRRRRRSSASLSGSSSSSSSSRSRSPPKKPPKRTSSPPRKTRRLSPSASPPRRRHRPSPPATPPPKTRHSPTPQQSNRTRKSRVSVSPGRTSGKVTKHKGTEKRESPSPAPKPRKVELSESEEDKGGKMAAADSVQQRRQYRRQNQQSSSDSGSSSSSEDERPKRSHVKNGEVGRRRRHSPSRSASPSPRKRQKETSPRGRRRRSPSPPPTRRRRSPSPAPPPRRRRTPTPPPRRRTPSPPPRRRSPSPRRYSPPIQRRYSPSPPPKRRTASPPPPPKRRASPSPPPKRRVSHSPPPKQRSSPVTKRRSPSLSSKHRKGSSPSRSTREARSPQPNKRHSPSPRPRAPQTSSSPPPVRRGASSSPQRRQSPSPSTRPIRRVSRTPEPKKIKKAASPSPQSVRRVSSSRSVSGSPEPAAKKPPAPPSPVQSQSPSTNWSPAVPVKKAKSPTPSPSPPRNSDQEGGGKKKKKKKDKKHKKDKKHKKHKKHKKEKAVAAAAAAAVTPAAIAAATTTLAQEEPVAAPEPKKETESEAEDNLDDLEKHLREKALRSMRKAQVSPQS

Target: Transmembrane protein 160 (TMEM160) (human (endogenous in A549)) (UniProt Q9NX00)
Test: affinity purification with mass spectrometry; endogenous TMEM160 immunoprecipitated from A549 lysate (NP40 lysis buffer with 0.5% CHAPS) with anti-TMEM160 antibody cross-linked (BS3) to protein A/G agarose beads, overnight at 4 °C; negative control without antibody; eluate analysed by LC-MS/MS (DIA)

binding, binds:
importin KPNA6 (from UniProt O60684 1-536)
B1
B2

No constants are given. Whether binding was seen depends on the method and setting. In cells and extracts the contact can be indirect. A yes stands for co-enrichment or nearness to the bait. Other partners may have been found.
